The structures appear in SMILES notation. Some of the results follow. These are further read-outs of the screen, such as a control signal, another cell line or another target. No call is given for them. The list favours compounds with an active or inconclusive main result. The note in brackets gives the kind of curve behind each potency; many fits are weak.

The AC50 is the concentration giving half of the maximal activity seen.

The nature of this assay: qHTS Assay to Find Inhibitors of Chronic Active B-Cell Receptor Signaling. Particulars: ABC-DLBCL IkBa-CBG/CBR reporter, luminescence ratio (green luciferase fused to IkBa over red control in TMD8 lymphoma cells), 4 h. Summed up: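 Compounds up to 46 uM were incubated four hours with TMD8 cells whose green CBG68 luciferase is fused to IkappaBalpha; red CBR luminescence normalised the signal, and concentration-effect curves were fitted to fusion, red and ratio data.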
Background: qHTS replaces the single test concentration by a dilution series.

Setting [1] is: measured here: CBR red luminescence, cell number.
[2] abbreviates: measured here: IkBa-CBG green luminescence.

Take `CCOC(=O)C1=C(N)N2C(=O)CSC2=C(C(=O)OC)C1`: the AC50 under setting [1] is 2.51 µM [falling, full curve, poor fit]. Consider `COc1ccccc1C(=O)Nc1nnc(-c2ccc(F)cc2)s1`, for which, under setting [1], the AC50 is 8.91 µM [falling, partial curve].

As to `CC1(C)Cc2cccc(C(=O)Nc3ccc(Cl)cc3)c2O1`, the AC50 under setting [1] was 1.26 µM [rising, full curve].

For the compound `CC1=Nc2ccccc2/C1=C\c1sc(Nc2ccc(C)cc2)nc1O`, the AC50 under setting [2] is 4.11 µM [falling, partial curve, poor fit]. Consider `COc1ccccc1/C=N\Nc1cn[nH]c(=O)c1Cl`, for which, under setting [1], the AC50 is 11.2 µM [falling, partial curve].

Take `Cc1ccc(SCC(=O)Nc2cc([N+](=O)[O-])ccc2O)cc1`: the AC50 under setting [1] was 1.26 µM [falling, full curve, poor fit].

For `Fc1ccc(CSc2ccc(-c3cccs3)nn2)cc1`, the AC50 under setting [1] is 0.411 µM [rising, full curve, poor fit]. `Cc1ccc(OCC(=O)Nc2ccc(C)c(S(=O)(=O)N3CCCCC3)c2)c([N+](=O)[O-])n1`: the AC50 under setting [1] is 4.11 µM [rising, full curve, poor fit]. On the same count and under the same terms, for `O=C(COc1ccccc1)N1CCN(C(=O)c2ccc([N+](=O)[O-])cc2)CC1` the value was 12.6 µM [falling, partial curve]; for `CCOC(=O)C1=C(CS(=O)(=O)c2ccc(C)cc2)NC(=O)NC1c1ccc(O)c(OC)c1` (stereo not drawn), 10 µM [rising, partial curve, poor fit]. As to `CCOCCCNc1nc2c(C)cccn2c(=O)c1/C=C1\SC(=S)N(C(C)CC)C1=O` (stereo not drawn), under setting [1], the AC50 was 0.224 µM [rising, full curve]. Same read-out and setting: the result for `Cc1ccc(C2(CCN)CCOC(C(C)C)C2)cc1` (stereo not drawn) reads 29.1 µM [falling, single point]. Take `O=C(CSc1nnnn1C1CCCCC1)N1CCN(C(=O)c2ccco2)CC1`: under setting [1], the AC50 was 7.08 µM [falling, partial curve, poor fit]. As for `COc1ccc(S(=O)(=O)N2CCCC2CNC(=O)C(=O)Nc2ccc(C)cc2)cc1` (stereo not drawn), under setting [1], the AC50 was 16.4 µM [falling, partial curve, poor fit]. For the compound `Cc1ccc(C#CC[N+](C)(C)CC#Cc2ccccc2)cc1`, the concentration at half-maximal activity (AC50) reads like this: under setting [1], 35.5 µM [falling, single point]; under setting [2], 14.1 µM [rising, partial curve, poor fit].

As for `Clc1cccc(-c2nnc(SC/C=C/c3ccccc3)n2Cc2ccco2)c1`, the concentration at half-maximal activity (AC50) under setting [1] is 18.4 µM [falling, single point]. On the same count and under the same terms, the result for `O=S(=O)(NCCc1c[nH]c2ccccc12)c1ccccc1` reads 5.62 µM [rising, full curve, poor fit].

The values are drawn from PubChem BioAssay AID493014 (National Center for Advancing Translational Sciences (NCATS), 2011).
